# Laboratory results reported in PubChem BioAssay AID1671190 (National Center for Advancing Translational Sciences (NCATS), 2021).
# The chains behind the UniProt entries cited, without tags or fusion partners. Where a name states a change or a piece, a line headed by the entry shows the natural chain unless it says otherwise.
# UniProt P18054: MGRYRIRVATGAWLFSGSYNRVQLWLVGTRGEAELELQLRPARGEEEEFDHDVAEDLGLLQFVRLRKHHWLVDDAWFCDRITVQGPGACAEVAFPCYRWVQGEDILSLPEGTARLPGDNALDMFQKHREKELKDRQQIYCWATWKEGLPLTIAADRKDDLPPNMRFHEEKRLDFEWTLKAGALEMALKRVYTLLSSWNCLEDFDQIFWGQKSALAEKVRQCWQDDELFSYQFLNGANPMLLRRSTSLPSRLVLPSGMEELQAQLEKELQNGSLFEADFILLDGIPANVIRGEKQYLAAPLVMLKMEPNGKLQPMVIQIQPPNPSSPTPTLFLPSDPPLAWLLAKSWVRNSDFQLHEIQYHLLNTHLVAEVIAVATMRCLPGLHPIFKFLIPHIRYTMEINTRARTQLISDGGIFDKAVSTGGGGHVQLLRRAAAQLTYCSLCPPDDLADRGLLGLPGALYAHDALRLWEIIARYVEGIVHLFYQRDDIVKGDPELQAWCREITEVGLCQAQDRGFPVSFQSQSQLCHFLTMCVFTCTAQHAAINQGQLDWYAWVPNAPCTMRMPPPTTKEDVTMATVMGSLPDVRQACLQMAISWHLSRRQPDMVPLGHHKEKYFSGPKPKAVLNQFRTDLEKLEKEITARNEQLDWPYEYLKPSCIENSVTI
# Several values for one entry are separate records, joined by “and”; a condition that tells them apart may be missing. Identical values can stand only once. Screen size: about 580,000 compounds; about 6,100 (1.1%) were called active. Inconclusive means that the source gave no clear call. Such entries were picked first, then a sample of the others. Calls follow the shape of the dose curve; as a rule, active = well fitted inhibition curve with a large enough effect; inconclusive = small, poorly fitted or top-dose-only effect, or another doubt; inactive = no such curve, though single readings can be large or run the other way. Potencies beside an inconclusive call are fits to weak or partial responses and may not hold up.
# Biological target: Polyunsaturated fatty acid lipoxygenase ALOX12 (Homo sapiens) (UniProt P18054)
# Experiment: Primary qHTS assay for inhibitors of human arachidonate 12S-lipoxygenase (ALOX12): Round 2
# Conditions: purified 12hLO, xylenol orange hydroperoxide absorbance; activity change, negative = inhibition: at 108 µM (top of the series) unless noted
# In short: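 Purified human 12hLO (150 nM final) in 25 mM Hepes, 0.01% Triton X-100, pH 7.0 was preincubated 15 min at room temperature with compound. Then 40 uM arachidonic acid was added, 30 min. Hydroperoxide was read by Fe-XO absorbance ratio 573/405 nm.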
# % is scaled to controls: 0 for no effect and ±100 for the full control effect; potency is read from the fitted curve at half-maximal effect.
SMILES,Potency,"activity change, negative = inhibition"
COC1OC2COC(c3ccccc3)OC2C(=O)C1NC(=O)c1ccccc1 (stereo not given),"inconclusive: 141 µM [inhibitor, partial curve, poor fit]",
CCC(C)(C(=O)NC1CCCC1)N(Cc1cccs1)C(=O)CNC(=O)c1ccccc1 (stereo not given),,inactive: -35.7%
Cc1ccc(Sc2ncccc2C(=O)NCc2cc([N+](=O)[O-])ccc2O)cc1C,"inconclusive: 79.4 µM [inhibitor, partial curve, poor fit]",
CCOC(=O)c1ccc(S(=O)(=O)N2CCN(C(=O)c3cc4ccccc4o3)CC2)cc1,"inconclusive: 112 µM [inhibitor, single point]",
C/C=C/Cn1c(SCCCCCCC)nc2c1c(=O)[nH]c(=O)n2C,"inconclusive: 35.5 µM [inhibitor, partial curve, poor fit]",
CN(C)CCNC(=O)c1ccc2c(c1)C1(CCCN(CC3CC3)C1)CN2C (stereo not given),"inconclusive: 3.55 µM [inhibitor, full curve, poor fit]",
C/C(=N\Nc1nc2ccccc2[nH]1)c1ccc(Cl)s1,"inconclusive: 79.4 µM [inhibitor, single point]",
Cc1ccccc1CNC(=O)C1CCCN(c2nnc(C)c3c(C)n(-c4ccccc4)nc23)C1 (stereo not given),,inactive: 0%
N[C@@H](Cc1cc(I)c(O)c(I)c1)C(=O)O,"inconclusive: 6.31 µM [inhibitor, full curve, poor fit] and active: 510 nM and inconclusive: 5.01 µM [inhibitor, full curve, poor fit]",
CCOC(=O)CCCCCC(=O)Nc1ccc2c(c1)CC(=O)N([C@H](C)CO)C[C@H](C)[C@H](CN(C)S(=O)(=O)c1ccc(OC)cc1)O2,"inconclusive: 112 µM [inhibitor, partial curve, poor fit]",
C=CCOC(=O)C1=C[C@H](c2ccc(Br)cc2)[C@@H](CCCO)[C@H](OCC)O1,"inconclusive: 79.4 µM [inhibitor, partial curve, poor fit]",
CC1CCN(S(=O)(=O)c2cc(C(=O)NCc3ccc(N(C)C)cc3)n(C)c2)CC1,,inactive: -22.6%
COc1cc2ncnc(NCc3cccs3)c2cc1OC,,inactive: 17.7%
COc1ccc(C(C)C)cc1S(=O)(=O)n1ccnc1C,,inconclusive: -30.5% [inhibitor]
CCN1CCN(Cc2c(C(=O)N/N=C(\C)c3ccc(Cl)cc3)nnn2-c2nonc2N)CC1,"inconclusive: 44.7 µM [inhibitor, partial curve, poor fit]",
COc1cc(NS(=O)(=O)c2ccc(N/C=C(\C#N)c3nc4cc(Cl)ccc4o3)cc2)nc(OC)n1,"inconclusive: 25.1 µM [inhibitor, partial curve]",
O=C(CSc1nc2c(c(=O)[nH]1)CCCC2)Nc1ccccc1C(F)(F)F,"inconclusive: 79.4 µM [inhibitor, partial curve, poor fit]",
CCOC(=O)C1CCN(C(=S)Nc2cc(C)ccc2C)CC1,,inactive: 7.38%
OCCCN=c1cc(-c2ccccc2)oc2ccc(Cl)cc12,"inconclusive: 35.5 µM [inhibitor, single point]",
CCCCCCCCSC1=CC(=O)C(OC)=C(OC)C1=O,"inconclusive: 5.01 µM [inhibitor, full curve, poor fit]",
CN(C)CCC1CCNCC1,,inactive: -33.6%
O=C(NCCCN1CCOCC1)c1onc(CSc2ccccc2)c1C(=O)NCCCN1CCOCC1,,inactive: -5.49%

SMILES,Potency,"activity change, negative = inhibition"
O=C(c1cnc2c(cnn2Cc2ccccc2)c1)N1CCCc2ccccc21,"inconclusive: 50.1 µM [inhibitor, partial curve, poor fit]",
CCc1cc2c(=O)n(C(C)C(=O)OC3CCCCC3)cnc2s1 (stereo not given),"inconclusive: 39.8 µM [inhibitor, partial curve, poor fit]",
COc1ccccc1CCNCc1ccc(OC)c(OCc2ccccc2)c1,"inconclusive: 12.6 µM [inhibitor, full curve, poor fit]",
CCc1nnc(NC(=O)CSc2nc(-c3ccc(OC)cc3)ns2)s1,,inactive: -5.82%
COc1ccc(NC(=O)c2cccc(S(=O)(=O)N3CCN(c4ccccc4)CC3)c2)c(OC)c1,"inconclusive: 126 µM [inhibitor, partial curve, poor fit]",
NC(=O)c1ccsc1NC(=O)C1CCCCC1,"inconclusive: 100 µM [inhibitor, single point]",
Cc1nc2c(c(-c3ccc(Cl)cc3)n1)CCN(C(=O)c1ccccc1F)CC2,,inactive: 6.97%
O=C(Nc1ccc(Br)cn1)c1ccc(Cl)s1,"inconclusive: 3.98 µM [inhibitor, full curve, poor fit]",
Cc1ccc(CNc2ncnc3ccc(-c4ccc(CO)o4)cc23)o1,"inconclusive: 31.6 µM [inhibitor, partial curve]",
O=C(COC(=O)c1ccc(F)cc1F)Nc1cc(S(=O)(=O)N2CCOCC2)ccc1Cl,,inactive: -15.7%
COc1ccc(OC)c(C2C(C(=O)Nc3ccccc3)=C(C)Nc3nc(SC)nn32)c1 (stereo not given),,inactive: 6.36%
COc1ccc2c(c1)CC(C1(O)C(=O)N(C)c3ccccc31)C2=O (stereo not given),,inactive: 0%
Cc1ccccc1CNC(=O)c1ccc(CN2C(=O)CCn3nccc32)cc1,,inactive: -7.32%
Cc1cccc(C(=O)Nc2cccc3ccc(C)nc23)c1,,inactive: 20.5%
Nc1ccc2ccccc2c1N=Nc1ccccc1,,inactive: -19.4%
CC1=C(C(N)=O)C(c2ccccc2F)n2nc(-c3ccc(Cl)cc3)nc2N1 (stereo not given),"inconclusive: 12.6 µM [inhibitor, full curve, poor fit]",
O=c1c2c(-c3ccco3)csc2nc(SCc2cn3cccnc3n2)n1-c1ccccc1,"inconclusive: 4.47 µM [inhibitor, full curve, poor fit]",
CCc1cc(C(=O)Nc2ncccc2O)sc1C,,inactive: 193%
Cc1ccc(NC(=O)CSc2nc(N)c3c4c(sc3n2)CSC(C)(C)C4)cc1,,inactive: -24%
COc1ccc(-c2nc3cnc(N4CCN(C)CC4)nc3n(Cc3ccc(F)cc3)c2=O)cc1,"inconclusive: 100 µM [inhibitor, single point]",
NNc1cc([N+](=O)[O-])cc2c1C(=O)N(Cc1ccccc1)S2=O (stereo not given),"inconclusive: 44.7 µM [inhibitor, partial curve, poor fit]",
CCCn1nc(C(=O)NC2CCCc3ccccc32)c2ccccc2c1=O (stereo not given),inactive,

SMILES,Potency,"activity change, negative = inhibition"
CC(C(=O)Nc1cccc(C#N)c1)N(C)CCOc1ccccc1 (stereo not given),"inconclusive: 112 µM [inhibitor, partial curve, poor fit]",
CN(C)c1cccc(-c2cnc(Nc3ccc(N4CCOCC4)cc3)c3c2CCO3)c1,"inconclusive: 100 µM [inhibitor, partial curve, poor fit]",
COc1ccc(-n2nnnc2C(c2cc3ccccc3o2)N2CCN(C/C=C/c3ccccc3)CC2)cc1 (stereo not given),"inconclusive: 79.4 µM [inhibitor, single point]",
Cc1ccccc1-c1nc(N2CCOCC2)c2ccccc2n1,"inconclusive: 11.2 µM [inhibitor, partial curve, poor fit]",
CN1CCN(CCCNC(=O)c2ccc(/C=C3/Sc4ccccc4N(Cc4cccc(Cl)c4)C3=O)cc2)CC1,"inconclusive: 50.1 µM [inhibitor, partial curve, poor fit]",
O=C(Nc1cccc(S(=O)(=O)C(F)F)c1)c1ccc(S(=O)(=O)N2CCCCC2)cc1,,inactive: -15.5%
COc1ccc(-c2ccc(-c3nc4ccc(C)cn4c3NC3CCCCC3)cc2OC)cc1,"inconclusive: 12.6 µM [inhibitor, partial curve, poor fit] and inconclusive: 44.7 µM [inhibitor, partial curve, poor fit]",
COc1ccc(N2CCN(C(=O)CSc3nnc(-c4ccco4)n3C)CC2)cc1,,inactive: 5.22%
COC(=O)[C@@H]1Cc2c([nH]c3ccccc23)[C@H]2C[C@@H](N3CCCCC3)C[C@@H](c3ccccc3F)N21,,inactive: 6.88%
CC(=O)Nc1nn(C)c2nc3cc(C)ccc3cc12,"inconclusive: 3.55 µM [inhibitor, full curve, poor fit]",
Cc1nc2nc3c(c(=O)n2[nH]1)CCC3,"inconclusive: 50.1 µM [inhibitor, partial curve, poor fit]",
CCn1nc(C(=O)Nc2ccccc2Oc2ccccc2)c2ccccc2c1=O,,inactive: 25.4%
CCCCn1c(N)c(N(CC(C)C)C(=O)c2cccc(S(=O)(=O)N(C)c3ccccc3)c2)c(=O)[nH]c1=O,"inconclusive: 56.2 µM [inhibitor, partial curve, poor fit]",
COc1ccc(N2CC(c3noc(-c4ccc(C)c(C)c4)n3)CC2=O)cc1OC (stereo not given),,inactive: 43.9%
COc1ccc(CN2CCc3oc(C)c(C(=O)NC4CCN(C)CC4)c3C2)cc1,"inconclusive: 31.6 µM [inhibitor, full curve, poor fit]",
CC(C)n1c(SCC(=O)NCc2ccco2)nnc1C1CC1,"inconclusive: 89.1 µM [inhibitor, partial curve, poor fit]",
Cc1ccc(NC(=O)CSc2nc3c(cc2C#N)C(=O)CCC3)cc1S(=O)(=O)N(C)C,,inactive: -9.36%
Cc1ccc(-c2csc3nc4cc(C(N)=O)ccc4c(=O)n23)cc1,active: 17.8 µM,
CN(CP(=O)(O)CN(C)S(C)(=O)=O)S(C)(=O)=O,"inconclusive: 31.6 µM [inhibitor, partial curve, poor fit]",
CN1C(=O)[C@H]2[C@@H](c3ccc(C(F)(F)F)cc3)N[C@]3(CCCN(Cc4ccc(F)cc4)C3=O)[C@H]2C1=O,"inconclusive: 44.7 µM [inhibitor, partial curve, poor fit]",
Cc1ncc(-c2ccc(S(=O)(=O)Nc3ccc(F)cc3)cc2)o1,,inactive: -22.4%
